Reference: patent publication US20160252532A1, “pH-Biosensors Based on Compounds Produced From Pyruvic Acid For Magnetic Resonance Imaging and Spectroscopy and Their Uses” (TECHNISCHE UNIVERSITÄT MÜNCHEN, priority 2013, published 2016)

Columns and labels:
[1] = 13C-NMR calibration of pH-dependent chemical shifts of OMPD in sodium phosphate buffer; assay type: physicochemical
[2] = tested on: MCF-7 tumor cells; assay: Hyperpolarized [1-13C]-pyruvate injected in MCF-7 tumor cells killed with Triton X-100, 13C-NMR of zymonic acid peaks vs pH; assay type: cell-based
[3] = 13C-NMR calibration of pH-dependent chemical shifts of zymonic acid in sodium phosphate buffer; assay type: physicochemical
[4] = 1H-NMR pH-dependent proton chemical shifts of zymonic acid; assay type: physicochemical; settings: referenced to external standard TMS
[5] = Decay of hyperpolarized zymonic acid (T1); assay type: physicochemical
[6] = hyperpolarized, 13C-labeled, MCF-7 cells with Triton X-100

SMILES | hysteresis effects in the pH-dependent chemical shift ([1]; pH-values measured in random order) | highest pH-dependent change in 13C chemical shift ([1]; range from pH 5 to pH 9) | highest pH-dependent change in chemical shift ([1]; range from pH 5 to pH 9) | pH dependent linear change in 13C chemical shift, two peaks (maximum) ([2]; hyperpolarized zymonic acid, FIG. 4C) | pH dependent 13C chemical shift, peak 1 [2, 6] | pH dependent 13C chemical shift, peak 2 [2, 6] | highest pH-dependent change in 13C chemical shift ([2]; range from pH 5 to pH 9) | hysteresis effects in the pH-dependent shift ([3]; pH adjusted with NaOH or HCl) | pH dependent change in 13C chemical shift, peak 1 (recap of FIG. 2) ([3]; thermally polarized and unlabeled zymonic acid) | pH dependent change in 13C chemical shift, peak 1 ([3]; thermally polarized, unlabeled, referenced to 13C-urea, best fit straight line) | pH dependent change in 13C chemical shift, peak 3 ([3]; thermally polarized, referenced to 13C-urea, best fit straight line) | pH dependent change in 1H chemical shift, peak A [4] | pH dependent change in 1H chemical shift, peak B [4] | T1 of hyperpolarized compound ([5]; 3 T) | T1 of hyperpolarized compound ([5]; 7 T)
C/C(=C/C(=O)C(=O)O)C(=O)O [OMPD, (Z)-4-methyl-2-oxopent-3-enedioic acid] | did not observe hysteresis effects | ≤ 12.2 ppm | up to 12.2 ppm/pH |  |  |  |  |  |  |  |  |  |  |  | 
CC1(C(=O)O)C=C(O)C(=O)O1 (stereo not drawn) [zymonic acid, 4-hydroxy-2-methyl-5-oxo-2,5-dihydrofuran-2-carboxylic acid] |  |  |  | up to 2.35 ppm/pH | approx. 2.35 ppm/pH | approx. 1.17 ppm/pH | up to 2.35 ppm/pH | did not observe hysteresis effects | 2.11 ppm/H | approx. 2.1 ppm/pH | approx. 1.0 ppm/pH | approx. −0.04 ppm/pH | approx. −0.3 ppm/pH | 40 to 50 s | ca. 20 s
